Experimental data reported in publication PMC4467156, “A new chemical inhibitor of angiogenesis and tumorigenesis that targets the VEGF signaling pathway upstream of Ras” (Oncotarget, 2015).
Several values for one entry are separate records, joined by “and”; a condition that tells them apart may be missing. Equal values may be shown once. Where a name gives a salt, the structure may show the parent alone.

Test system: HMEC-GFP cells
Test: Scratch wound closure assay, HMEC-GFP
Format: cell-based, human
Conditions: IC50 3T3-GFP / IC50 HMEC-GFP
Source text: In order to adapt the endothelial scratch wounding assay to the constraints of high throughput screening, we decided to use an endothelial cell line rather than primary cultures for the sake of reproducibility. Since angiogenesis is triggered by capillary endothelial cells, we selected the HMEC-1 cell line which consists of human dermal microvascular endothelial cells stably expressing SV40 […] antigen. We infected this cell line with GFP-encoding retroviral particles and selected one clone (thereafter named HMEC-GFP) that presented a high level of fluorescence and a strong proliferation rate (doubling time in the presence of serum: 22 h). We controlled that GFP expression was stable over at least 50 passages and that these cells still expressed endothelial markers such as VE-cadherin and CD31. In a standard assay, HMEC-GFP cells were grown until confluence in 96-well plates in the presence of serum, scratched with the multi-tip dispenser of the HTS automat, gently rinsed twice to eliminate detached cells and cell debris that could liberate inflammatory and potentially angiogenic cytokines, and incubated for 24 h in the presence of serum and the compounds to be tested. Each well was photographed at time 0 h (after wounding) and 24 h under a motorized epifluorescence microscope and the digitized images were analyzed using Image J to determine the percentage of wound closure (Figure 1A, 1B). Under our standard conditions, the closure rate was 72 ± 4% in the positive controls and 27 ± 4.% in the negative controls.
Confluent cell monolayers were wounded with a plastic pipet tip, washed gently with phosphate buffer saline (PBS) and treated with complete media containing molecules, as indicated. Cells were placed at 37°C into the incubator and photographed at indicated times. Quantitation of closure of the monolayer was performed using the NIH Image J program (http://rsbweb.nih.gov/ij/). Results are expressed as percentage of wound closure at t = 24 h as compared to the initial wound at t = 0 h.

Row | Molecule | Activity(HMEC vs 3T3), ratio between the IC50s on both cell types
1 | NCCCN1CCN(CCCN2C(=O)c3cccc4cccc(c34)C2=O)CC1 [COB228, N-{3-[4-(3-Aminopropyl)piperazin-1-yl]propyl}-1,8-naphthalimide hydrochloride] | 1.6
2 | CC(C)(C)OC(=O)NCCCN1CCN(CCCNS(=O)(=O)c2cccc3ccccc23)CC1 [COB235, tert-Butyl 3-(4-(3-(naphthalene-1-sulfonamido)propyl)piperazin-1-yl) propylcarbamate] | > 1.25
3 | CN(C)c1ccc2c3c(cccc13)C(=O)N(CCCNCCCNC(=O)OC(C)(C)C)C2=O [COB275, N-[3-((3-tert-Butoxycarbonylaminopropyl)amino)propyl]-4-dimethylamino-1,8-naphthalimide] | 4
4 | CN(C)c1cccc2c(S(=O)(=O)NCCCO)cccc12 [COB220, 5-(Dimethylamino)-N-[3-hydroxypropyl]naphthalene-1-sulfonamide] | > 1.25
5 | O=C1c2cccc3cc([N+](=O)[O-])cc(c23)C(=O)N1CCCNCCCN1C(=O)c2cccc3cc([N+](=O)[O-])cc(c23)C1=O [COB278, Bis-[(3-nitro-1,8-naphthalimido)propyl]amine] | 2
6 | CN(C)CCCNS(=O)(=O)c1cccc2c(N(C)C)cccc12 [COB221, 5-(Dimethylamino)-N-[3-(dimethylamino)propyl]naphthalene-1-sulfonamide] | 7.5
7 | CN(C)c1cccc2c(S(=O)(=O)NCCCNS(=O)(=O)c3cccc4c(N(C)C)cccc34)cccc12 [Compound 05-06-F11, 1,3-bis [5-(Dimethylamino)naphthalene-1-sulfonamido] diaminopropane] | 2.6
8 | CC(C)(C)OC(=O)NCCCN1CCN(CCCNC(=O)OCc2ccc([N+](=O)[O-])cc2)CC1 [COB238, 4-Nitrobenzyl N-[3-(4-{3-[(tert-butoxycarbonyl)amino]propyl}piperazin-1-yl)propyl] carbamate] | > 2.5
9 | CN(C)c1cccc2c(S(=O)(=O)NCCCN3CCN(CCCNC(=O)OC(C)(C)C)CC3)cccc12 [COB223, tert-Butyl 3-(4-(3-(5-(dimethylamino)naphthalene-1-sulfonamido)propyl)piperazin-1-yl) propylcarbamate] | 5
10 | N-(5-(Dimethylamino)naphthalene-1-sulfonamido)-1,3-diamino-propane [Compound 05-06-L-D03] | 8
11 | NCCCCCCNS(=O)(=O)c1cccc2c(Cl)cccc12 [Compound W7, reference compound] | 1
12 | N-(5-(Dimethylamino)naphthalene-1-sulfonamido)-N'-(tert-butoxycarbonyl)-1,3-diamino-propane [Compound 05-102-B09] | 8.3
13 | CC(C)(C)OC(=O)NCCCN1CCN(CCCN2C(=O)c3cccc4cccc(c34)C2=O)CC1 [COB227, N-{3-[4-(3-tert-Butoxycarbonylaminopropyl)piperazin-1-yl]propyl}-1,8-naphthalimide] | 14 and 13.9
